Patent US20140107143A1, “QUATERNARY OPIOID CARBOXAMIDES” (Rensselaer Polytechnic Institute, priority 2007, published 2014)
For some of these results: At least one read-out could not be matched to a standard name with certainty. For some of these results: At least one compound was matched to its structure with a doubt left.

By UniProt entry, the sequences of proteins in these tests, tags left out. Where a name states a change or a piece, a line headed by the entry shows the natural chain unless it says otherwise.
UniProt P35372, whole entry: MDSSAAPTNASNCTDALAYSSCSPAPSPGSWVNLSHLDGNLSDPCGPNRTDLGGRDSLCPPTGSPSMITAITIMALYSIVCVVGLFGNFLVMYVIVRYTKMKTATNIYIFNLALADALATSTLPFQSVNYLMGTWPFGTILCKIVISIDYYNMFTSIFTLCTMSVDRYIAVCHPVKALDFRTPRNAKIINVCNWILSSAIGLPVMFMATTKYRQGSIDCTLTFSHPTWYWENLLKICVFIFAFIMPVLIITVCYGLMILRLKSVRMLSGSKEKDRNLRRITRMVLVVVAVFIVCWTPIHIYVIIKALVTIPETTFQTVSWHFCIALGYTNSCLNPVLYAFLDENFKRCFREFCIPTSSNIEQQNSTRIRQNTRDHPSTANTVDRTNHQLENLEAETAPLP
UniProt P41145: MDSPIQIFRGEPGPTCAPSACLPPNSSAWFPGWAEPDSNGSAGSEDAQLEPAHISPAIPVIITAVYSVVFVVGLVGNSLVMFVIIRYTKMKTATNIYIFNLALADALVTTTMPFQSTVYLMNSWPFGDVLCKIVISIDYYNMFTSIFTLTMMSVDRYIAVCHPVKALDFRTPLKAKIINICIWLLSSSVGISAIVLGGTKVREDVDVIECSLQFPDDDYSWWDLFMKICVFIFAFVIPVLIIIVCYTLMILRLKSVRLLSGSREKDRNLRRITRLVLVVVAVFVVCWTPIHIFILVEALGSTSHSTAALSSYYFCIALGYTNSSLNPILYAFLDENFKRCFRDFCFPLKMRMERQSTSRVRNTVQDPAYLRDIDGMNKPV

How the values were obtained:
[1] = PK evaluation in rats (plasma, LC-MS/MS); assay type: in vivo; settings: subcutaneous administration, FIG. 4
Experimental: Animals were dosed with the example compound and blood samples were collected for 2 hours using the following method. Rats were briefly anesthetized with 1-2% isoflurane and blood samples (approximately […] of whole blood) from a lateral tail vein were collected into tubes containing EDTA. The tubes were centrifuged at 10K×g for 2 minutes to separate plasma. Plasma was pipetted into microcentrifuge vials and stored at −80° C. until plasma levels were determined by liquid chromatography-mass spectrometry/mass spectrometry (LC-MS/MS) (modification of Baranczewski et al., 2006). […] The mean concentration of the example compound in plasma was calculated for each time point. […]
A bioanalytical assay was developed and qualified for measurement of the example compound in rat plasma. […] The intra-day accuracy and precision were evaluated by analysis of each 80 ng/mL, 40 ng/mL, and 8 ng/mL assay control (n=5 at each concentration) on the same day. Accuracy was calculated as a percentage ratio of measured concentration to nominal concentration and precision was expressed as the coefficient of variation. […] accuracy and precision were evaluated for each 80 ng/mL, 40 ng/mL, and 8 ng/mL assay control over 10 different runs (n=26 for each control sample). […] Stability was expressed as a percentage ratio of measured concentration to the nominal.

human δ opioid receptor = human δ opioid receptor (Homo sapiens, UniProt P41143); settings: CHO membranes, mean ± SEM
human μ opioid receptor = human μ opioid receptor (Homo sapiens, UniProt P35372); assay: Opioid receptor binding assay, [3H]DAMGO (μ); settings: CHO membranes, mean ± SEM
human κ opioid receptor = human κ opioid receptor (Homo sapiens, UniProt P41145); assay: Opioid receptor binding assay, [3H]U69,593 (κ); settings: CHO membranes, mean ± SEM

Row | Compound | bioavailability relative to IV [1] | [3H]Naltrindole (δ) Ki (human δ opioid receptor) | [3H]DAMGO (μ) Ki (human μ opioid receptor) | [3H]U69,593 (K) Ki (human κ opioid receptor)
1 | C[N+]1(CC2CC2)CC[C@]23CC(=O)CC[C@@]2(O)[C@H]1Cc1ccc(C(N)=O)c(O)c13 (stereo partly shown) [Compound 6, 3-Carboxamido-4-hydroxy-naltrexone methiodide] | High bioavailability | – | – | –
2 | CC1C2Cc3ccc(O)cc3C1(C)CC[N+]2(C)CC1CC1 (stereo not shown) [Compound 8, Cyclazocine methiodide] | – | 550 nM | 0.91 nM | 5.8 ± 0.59 nM
